# For at least one compound, name, drawing or mass did not settle the structure.
# Key:
# Assay type in all cases: cell-based
# [1] = system: CHX hepatocarcinoma cell line; assay: Morphological change of CHX tumor cell line by LDH-RA treatment; settings: 12 hours after treatment; 40 μg/ml of LDH, 250 μg/ml of RA, 1,000 μg/ml of LDH-RA
# CHX tumor cells = assay: DNA fragmentation, agarose gel electrophoresis; settings: 1,000 μg/ml of LDH, 250 μg/ml of RA, 40 μg/ml of LDH-RA, 1-2 days
# AKT = assay: Western blotting, protein expression of AKT; settings: CHX tumor cells; 1,000 μg/ml of LDH, 250 μg/ml of RA, 40 μg/ml of LDH-RA, 12 hours
# Caspase-3 = assay: Western blotting, protein expression of Caspase-3; settings: CHX tumor cells; 1,000 μg/ml of LDH, 250 μg/ml of RA, 40 μg/ml of LDH-RA, 12 hours
# Bcl-2 = assay: Western blotting, protein expression of Bcl-2; settings: CHX tumor cells; 1,000 μg/ml of LDH, 250 μg/ml of RA, 40 μg/ml of LDH-RA, 12 hours
smiles,measurement,setting,value
"CC1=C(/C=C/C(C)=C/C=C/C(C)=C/C(=O)O)C(C)(C)CCC1 [RA, retinoic acid]",apoptotic cell death (morphological observation),[1],no apoptotic cell death was observed
same,cell proliferation (morphological observation),[1],slightly retarded
same,DNA fragmentation,CHX tumor cells,formed discontinuous ladder patterns (200-400 bp in length)
same,AKT expression,AKT,expressed only in the normal group and the LDH-dose group
same,Caspase-3 expression,Caspase-3,strongly expressed
same,Bcl-2 expression,Bcl-2,expressed only in the normal group and the LDH-dose group
